Laboratory results taken from article PMC8867190.
The exact form of at least one protein or probe is not confirmed. Weaker means in comparison with the reference protein, sequence or condition of that experiment.

Experiments:
Assay in all cases: electrochemical strand displacement (SWV)
[1] = system: Follicle-stimulating hormone (FSH); settings: 1 uM FSH, current for LH about 1.5-fold larger than for FSH; 10 mM phosphate buffer, 1 M NaCl, pH 7.4, room temperature; 30 nM aptamer/signal duplex (prepared in 20 mM Tris, 50 mM MgCl2, pH 8.0, diluted 60 uL into 1940 uL PBS); commercial protein; folded or branched DNA
Serum albumin (SAB) = settings: 1 uM, apparent decrease in SWV current response; 10 mM phosphate buffer, 1 M NaCl, pH 7.4, room temperature; 30 nM aptamer/signal duplex (prepared in 20 mM Tris, 50 mM MgCl2, pH 8.0, diluted 60 uL into 1940 uL PBS); commercial protein; folded or branched DNA
[2] = system: Thyroid stimulating hormone (TSH); settings: 1 uM, apparent decrease in SWV current response; 10 mM phosphate buffer, 1 M NaCl, pH 7.4, room temperature; 30 nM aptamer/signal duplex (prepared in 20 mM Tris, 50 mM MgCl2, pH 8.0, diluted 60 uL into 1940 uL PBS); commercial protein; folded or branched DNA

Measured: binding result

TATGGTATGCTGTGTGGTATGGGGTGGCGTGCTCT [LH aptamer]
binds more weakly: all assays above
